7 molecules from paper doi:10.1101/2020.08.27.269514 can be followed below.

Amino acid sequences for entries named in this document (tags omitted).
UniProt Q62315: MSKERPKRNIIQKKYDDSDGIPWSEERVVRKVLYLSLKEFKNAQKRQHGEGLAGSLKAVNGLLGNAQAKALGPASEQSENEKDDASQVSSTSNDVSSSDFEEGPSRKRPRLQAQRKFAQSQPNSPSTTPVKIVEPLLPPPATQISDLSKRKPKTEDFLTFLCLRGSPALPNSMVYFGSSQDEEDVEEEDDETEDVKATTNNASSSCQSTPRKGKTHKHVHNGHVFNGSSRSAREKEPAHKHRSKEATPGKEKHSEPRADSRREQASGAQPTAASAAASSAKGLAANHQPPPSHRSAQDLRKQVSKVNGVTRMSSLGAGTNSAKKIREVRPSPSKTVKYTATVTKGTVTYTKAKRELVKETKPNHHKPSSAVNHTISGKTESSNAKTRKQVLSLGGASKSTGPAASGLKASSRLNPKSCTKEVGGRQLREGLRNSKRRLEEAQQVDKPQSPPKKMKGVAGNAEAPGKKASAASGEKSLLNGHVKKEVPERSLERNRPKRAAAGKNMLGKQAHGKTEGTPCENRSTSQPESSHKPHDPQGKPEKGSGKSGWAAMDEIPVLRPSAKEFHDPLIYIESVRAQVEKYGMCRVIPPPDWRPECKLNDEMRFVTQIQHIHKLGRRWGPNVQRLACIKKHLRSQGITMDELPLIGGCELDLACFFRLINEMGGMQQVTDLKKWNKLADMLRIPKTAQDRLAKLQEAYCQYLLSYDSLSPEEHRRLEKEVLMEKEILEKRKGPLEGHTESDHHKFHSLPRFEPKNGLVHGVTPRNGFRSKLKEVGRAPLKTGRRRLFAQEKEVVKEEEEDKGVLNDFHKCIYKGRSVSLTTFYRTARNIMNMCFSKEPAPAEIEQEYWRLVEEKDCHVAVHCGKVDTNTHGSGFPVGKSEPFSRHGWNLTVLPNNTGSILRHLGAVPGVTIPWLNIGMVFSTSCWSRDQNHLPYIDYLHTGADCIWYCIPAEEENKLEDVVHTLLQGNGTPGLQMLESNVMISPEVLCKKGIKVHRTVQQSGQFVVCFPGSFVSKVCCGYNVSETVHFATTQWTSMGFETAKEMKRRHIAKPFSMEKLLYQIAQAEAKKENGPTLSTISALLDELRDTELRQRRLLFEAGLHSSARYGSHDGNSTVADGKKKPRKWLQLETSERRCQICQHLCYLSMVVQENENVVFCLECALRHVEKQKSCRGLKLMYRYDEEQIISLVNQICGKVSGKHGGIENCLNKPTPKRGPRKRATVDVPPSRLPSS
UniProt O70546: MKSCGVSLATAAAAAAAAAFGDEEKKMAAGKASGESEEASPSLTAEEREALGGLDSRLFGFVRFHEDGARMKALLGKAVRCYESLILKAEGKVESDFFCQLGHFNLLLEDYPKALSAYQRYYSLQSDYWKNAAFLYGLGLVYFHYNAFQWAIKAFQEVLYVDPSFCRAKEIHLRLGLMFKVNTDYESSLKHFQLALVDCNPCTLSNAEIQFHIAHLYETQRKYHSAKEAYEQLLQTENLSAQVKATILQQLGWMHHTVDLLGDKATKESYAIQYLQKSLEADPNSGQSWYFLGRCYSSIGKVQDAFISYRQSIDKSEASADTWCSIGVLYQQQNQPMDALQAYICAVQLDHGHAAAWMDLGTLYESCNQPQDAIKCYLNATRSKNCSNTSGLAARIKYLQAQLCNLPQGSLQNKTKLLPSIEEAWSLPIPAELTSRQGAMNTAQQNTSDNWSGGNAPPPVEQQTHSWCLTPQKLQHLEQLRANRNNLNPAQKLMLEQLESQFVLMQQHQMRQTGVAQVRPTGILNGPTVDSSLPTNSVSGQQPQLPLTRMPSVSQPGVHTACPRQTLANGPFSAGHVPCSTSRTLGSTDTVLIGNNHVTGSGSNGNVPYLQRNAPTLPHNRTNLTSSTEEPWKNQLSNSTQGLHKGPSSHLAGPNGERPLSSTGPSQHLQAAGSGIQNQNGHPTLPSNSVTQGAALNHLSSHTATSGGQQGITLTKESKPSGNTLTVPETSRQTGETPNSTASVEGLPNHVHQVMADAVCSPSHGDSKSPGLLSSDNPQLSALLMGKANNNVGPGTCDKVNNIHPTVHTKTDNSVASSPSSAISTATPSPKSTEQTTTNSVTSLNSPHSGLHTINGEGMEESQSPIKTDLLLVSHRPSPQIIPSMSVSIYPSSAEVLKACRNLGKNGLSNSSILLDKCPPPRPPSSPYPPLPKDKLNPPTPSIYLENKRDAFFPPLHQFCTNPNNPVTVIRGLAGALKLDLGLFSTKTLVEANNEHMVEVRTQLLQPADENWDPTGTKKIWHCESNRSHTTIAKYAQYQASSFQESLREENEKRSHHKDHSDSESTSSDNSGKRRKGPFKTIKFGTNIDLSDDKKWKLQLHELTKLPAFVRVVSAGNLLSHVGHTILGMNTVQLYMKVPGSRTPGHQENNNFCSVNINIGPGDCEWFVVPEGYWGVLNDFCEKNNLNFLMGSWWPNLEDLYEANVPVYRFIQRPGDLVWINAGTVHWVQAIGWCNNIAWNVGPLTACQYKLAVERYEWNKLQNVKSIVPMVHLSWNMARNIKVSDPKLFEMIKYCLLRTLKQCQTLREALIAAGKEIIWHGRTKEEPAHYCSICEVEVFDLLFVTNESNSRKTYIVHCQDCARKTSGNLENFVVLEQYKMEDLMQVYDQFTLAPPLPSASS
UniProt Q80Y84: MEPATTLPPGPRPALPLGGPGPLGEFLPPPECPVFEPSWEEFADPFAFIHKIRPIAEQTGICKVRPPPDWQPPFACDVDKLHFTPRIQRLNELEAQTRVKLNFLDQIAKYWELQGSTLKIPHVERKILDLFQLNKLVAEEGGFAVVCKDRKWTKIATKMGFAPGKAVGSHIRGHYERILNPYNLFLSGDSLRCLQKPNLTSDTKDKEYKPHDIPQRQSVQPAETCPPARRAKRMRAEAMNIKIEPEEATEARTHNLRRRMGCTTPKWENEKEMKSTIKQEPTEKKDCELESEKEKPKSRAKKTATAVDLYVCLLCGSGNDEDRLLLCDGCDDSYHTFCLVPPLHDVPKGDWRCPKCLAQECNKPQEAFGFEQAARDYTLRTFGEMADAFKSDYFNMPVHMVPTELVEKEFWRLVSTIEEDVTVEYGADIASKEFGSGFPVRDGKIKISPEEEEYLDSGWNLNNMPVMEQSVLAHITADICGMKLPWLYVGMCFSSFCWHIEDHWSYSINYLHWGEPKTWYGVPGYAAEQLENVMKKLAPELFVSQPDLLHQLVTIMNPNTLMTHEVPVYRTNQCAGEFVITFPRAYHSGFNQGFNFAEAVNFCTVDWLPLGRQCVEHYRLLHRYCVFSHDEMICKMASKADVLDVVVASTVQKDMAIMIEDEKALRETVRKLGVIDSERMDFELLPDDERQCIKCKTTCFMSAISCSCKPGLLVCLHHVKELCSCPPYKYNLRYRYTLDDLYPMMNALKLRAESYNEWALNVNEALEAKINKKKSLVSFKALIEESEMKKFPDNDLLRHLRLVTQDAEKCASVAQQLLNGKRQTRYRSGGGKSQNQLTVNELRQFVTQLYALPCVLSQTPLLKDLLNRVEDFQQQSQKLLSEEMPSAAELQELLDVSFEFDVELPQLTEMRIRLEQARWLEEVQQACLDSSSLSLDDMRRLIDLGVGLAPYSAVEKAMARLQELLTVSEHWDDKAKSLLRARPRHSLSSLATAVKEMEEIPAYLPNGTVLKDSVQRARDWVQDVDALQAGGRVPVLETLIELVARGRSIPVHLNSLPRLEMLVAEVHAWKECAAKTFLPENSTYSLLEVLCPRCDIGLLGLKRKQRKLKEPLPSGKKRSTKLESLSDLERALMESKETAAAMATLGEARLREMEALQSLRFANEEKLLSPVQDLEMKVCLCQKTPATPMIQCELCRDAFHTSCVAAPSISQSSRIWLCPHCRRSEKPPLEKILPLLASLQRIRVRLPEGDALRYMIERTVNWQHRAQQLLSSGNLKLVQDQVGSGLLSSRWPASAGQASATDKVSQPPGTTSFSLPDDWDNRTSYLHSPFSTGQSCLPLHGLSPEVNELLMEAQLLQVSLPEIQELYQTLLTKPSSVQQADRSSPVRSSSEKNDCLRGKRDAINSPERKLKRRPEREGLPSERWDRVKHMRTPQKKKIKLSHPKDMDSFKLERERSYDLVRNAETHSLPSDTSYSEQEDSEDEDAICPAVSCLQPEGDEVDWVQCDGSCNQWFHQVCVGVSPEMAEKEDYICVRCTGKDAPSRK
UniProt Q9Z0Z7: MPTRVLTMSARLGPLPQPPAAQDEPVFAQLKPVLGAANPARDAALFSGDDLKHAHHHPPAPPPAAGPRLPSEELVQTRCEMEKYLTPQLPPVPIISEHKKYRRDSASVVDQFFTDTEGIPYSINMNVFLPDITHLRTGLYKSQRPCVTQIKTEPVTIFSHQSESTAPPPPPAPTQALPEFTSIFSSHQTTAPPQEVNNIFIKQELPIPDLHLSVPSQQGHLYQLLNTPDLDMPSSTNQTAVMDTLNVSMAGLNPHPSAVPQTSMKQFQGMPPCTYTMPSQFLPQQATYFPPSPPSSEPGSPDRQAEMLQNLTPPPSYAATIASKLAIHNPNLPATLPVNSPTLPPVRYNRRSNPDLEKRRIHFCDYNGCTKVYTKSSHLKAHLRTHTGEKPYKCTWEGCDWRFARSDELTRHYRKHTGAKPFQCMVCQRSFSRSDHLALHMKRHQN
UniProt Q9CQJ4: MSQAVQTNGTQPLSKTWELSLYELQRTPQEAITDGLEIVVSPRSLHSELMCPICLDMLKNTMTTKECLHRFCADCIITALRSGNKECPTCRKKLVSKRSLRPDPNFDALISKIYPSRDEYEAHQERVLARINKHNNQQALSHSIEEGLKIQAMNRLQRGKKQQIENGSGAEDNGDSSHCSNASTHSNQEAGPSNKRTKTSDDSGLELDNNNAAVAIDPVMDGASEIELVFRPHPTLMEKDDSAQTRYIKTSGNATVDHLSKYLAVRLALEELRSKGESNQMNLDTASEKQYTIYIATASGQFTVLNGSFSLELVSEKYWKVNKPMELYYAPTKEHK
UniProt P48432: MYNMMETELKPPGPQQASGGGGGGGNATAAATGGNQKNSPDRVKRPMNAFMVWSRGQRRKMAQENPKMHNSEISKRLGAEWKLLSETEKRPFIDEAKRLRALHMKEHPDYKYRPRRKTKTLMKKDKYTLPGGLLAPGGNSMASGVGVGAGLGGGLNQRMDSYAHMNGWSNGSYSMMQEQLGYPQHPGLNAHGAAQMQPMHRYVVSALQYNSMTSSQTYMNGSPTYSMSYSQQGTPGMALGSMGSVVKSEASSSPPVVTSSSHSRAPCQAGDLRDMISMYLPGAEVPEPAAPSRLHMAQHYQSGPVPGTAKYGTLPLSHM
UniProt Q80U70: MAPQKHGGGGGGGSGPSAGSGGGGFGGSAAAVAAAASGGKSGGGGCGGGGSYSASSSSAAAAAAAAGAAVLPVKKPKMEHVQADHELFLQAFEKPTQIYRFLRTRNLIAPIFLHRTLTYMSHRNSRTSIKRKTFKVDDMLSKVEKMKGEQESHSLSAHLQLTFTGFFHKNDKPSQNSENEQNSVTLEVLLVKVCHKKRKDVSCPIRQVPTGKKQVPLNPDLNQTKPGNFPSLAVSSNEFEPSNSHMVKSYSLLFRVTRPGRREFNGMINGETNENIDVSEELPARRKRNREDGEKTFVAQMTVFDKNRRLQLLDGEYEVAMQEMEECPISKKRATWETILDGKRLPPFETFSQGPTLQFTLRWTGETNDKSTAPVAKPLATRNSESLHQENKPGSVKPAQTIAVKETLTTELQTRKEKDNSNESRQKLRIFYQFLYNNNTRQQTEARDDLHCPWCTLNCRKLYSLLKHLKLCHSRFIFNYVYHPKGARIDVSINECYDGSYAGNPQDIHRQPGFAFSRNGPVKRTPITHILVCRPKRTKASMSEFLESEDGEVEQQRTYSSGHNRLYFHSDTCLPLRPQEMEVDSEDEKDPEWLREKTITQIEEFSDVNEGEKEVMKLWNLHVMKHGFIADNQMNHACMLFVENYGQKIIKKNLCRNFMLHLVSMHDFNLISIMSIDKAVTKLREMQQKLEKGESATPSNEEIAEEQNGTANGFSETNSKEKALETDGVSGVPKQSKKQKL

Where two headings read alike, the source gives them in different places. Results are given in words; binding and its absence hold for the method and conditions named. Binding seen in cells or lysates may run through a third protein. Some binding calls cover weakened binding; strength is not graded here.

Experiment in all cases: co-IP
Experiment [1] addresses JARID2-FLAG-Biotin(FB) (UniProt Q62315).
The target of experiment [2] is KDM6A-FLAG-Biotin(FB) (UniProt O70546).
Experiment [3] has the same target. The source holds these as a separate data set.
In experiment [4] the target is JARID2-FLAG-Biotin(FB) (UniProt Q62315). This is another data set of the same source.

For KDM5B (from UniProt Q80Y84 1-1544), in the experiment with JARID2-FLAG-Biotin(FB) [1], the binding result is listed as “binds”.

With KLF5 (from UniProt Q9Z0Z7 1-446), the binding entry with KDM6A-FLAG-Biotin(FB) [2] is “binds”.

For the molecule RING1B (from UniProt Q9CQJ4 1-336), the binding result with JARID2-FLAG-Biotin(FB) [1] is reported as “binds”.

As to SOX2 (from UniProt P48432 1-319), the binding result with KDM6A-FLAG-Biotin(FB) [2] was “binds”.

With SUZ12 (from UniProt Q80U70 1-741), the binding entry with JARID2-FLAG-Biotin(FB) [1] is “binds”.

B1: KDM4B (protein, UniProt Q91VY5 1-1086)
chain: MGSEDHSAQNPSCKIMTFRPTMDEFRDFNRYVAYIESQGAHRAGLAKIIPPKEWKPRQTYDDIDDVVIPAPIQQVVTGQSGLFTQYNIQKKAMTVGEYRRLANSEKYCTPRHQDFDDLERKYWKNLTFVSPIYGADISGSLYDDDVAQWNIGNLRTILDMVERECGTIIEGVNTPYLYFGMWKTTFAWHTEDMDLYSINYLHFGEPKSWYAIPPEHGKRLERLAIGFFPGSSQGCDAFLRHKMTLISPIILKKYGIPFSRITQEAGEFMITFPYGYHAGFNHGFNCAESTNFATLRWIDYGKVATQCTCRKDMVKISMDVFVRILQPERYEQWKQGRDLTVLDHTRPTALSSPELSSWSASRTSIKAKLLRRQISVKESRPWRKAEEERRREPTRRPGPASHRRRSQPKKSKPEESRSPGEATAGVSTLDEARGCSRGEAMPEDEEEEELLPSQGHEAEGVEEDGRGKPRPTKARNKKKTPSPSSPPLLSAPPALFPTEEVLRPPPQPKSPGPAMGPMAAEGGPPPTPLNVVPPGAPVEEAEVRPRPIIPMLYVLPRTSSTDGDREHSAHAQLAPMELGPEEENQAQAGDSQGTTPFSKLKVEIKKSRRHPLGRPPTRSPLSVVKQEASSDEEAFLFSGEDDVTDPEALRSLLSLQWKNKAASFQAERKFNAAAALSEPYCAICTLFYPYSQSVQTERDSAVQPPSKSGQRTRPLIPEMCFTSSGENTEPLPANSYVGEDGTSPLISCAHCCLQVHASCYGVRPELAKEGWTCSRCAAHAWTAECCLCNLRGGALQRTTEHRWIHVICAIAVPEVRFLNVIERNPVDVSAIPEQRWKLKCIYCRKRMKRVSGACIQCSYEHCSTSFHVTCAHAAGVLMEPDDWPYVVSITCLKHRASGAGGQLLRTVSLGQIVITKNRNGLYYRCRVIGTTAQTFYEVNFDDGSYSDNLYPESITSRDCLRLGPPPEGELVELRWTDGNLYRARFISMATSLIYQVEFEDGSQLTVKRGDIFTLEEELPKRVRSRLSLSTGTPQEPSFSGDDVKAAKRPRVASVLATTTEDTGRSPEYLSFMESLLQAQGRPGAPF
Regarding B1, the binding entry with KDM6A-FLAG-Biotin(FB) [3] is given as “binds”.

B2: KDM4A (protein, UniProt Q8BW72 1-1064)
chain: MASESETLNPSARIMTFYPTMEEFRNFSRYIAYIESQGAHRAGLAKVVPPKEWKPRTSYDDIDDLVIPAPIQQLVTGQSGLFTQYNIQKKAMTVREFRKIANSDKYCTPRYSEFEELERKYWKNLTFNPPIYGADVNGTLYEQHVDEWNIGRLKTILDLVEKESGITIEGVNTPYLYFGMWKTSFAWHTEDMDLYSINYLHFGEPKSWYSVPPEHGKRLERLAKGFFPGSAQSCEAFLRHKMTLISPLMLKKYGIPFDKVTQEAGEFMITFPYGYHAGFNHGFNCAESTNFATRRWIEYGKQAVLCSCRKDMVKISMDVFVRRFQPERYKLWKAGKDSMVIDHTLPTPEAAEFLKDSGGLTPRAGSEECPEEDVEAADQGEEGDVKRSLAKHRIGTKRHRVCLEIPQEVSQSELFPKEELSSGQYEMTECPATLAPVRPTHSSVRQVEDSLPFPDYSDPTEVKFEELKNVKLEEEDEEDEPEAAALDLSVNPASVGGRLVFSGSKKKSSSSLGSTSSQDSVSSDSETAESVSCQGQEKTGVLTVHSYARGDGKAATGEPSVKKKRSAPRSISEQELAEVADEYMLSLEENKKTKGRRQPLSKLPRHHPLVLQECGSDDETSEQLTPEEEAEETEAWAKPLSQLWQNRPPNFEAEKEFNEIMAQQAPHCAVCMIFQTYHQVEFGAFSQSCGDASEPAAQTQRTKPLIPEMCFTTTGCSTDINLSTPYLEEDGTSMLVSCKKCSVRVHASCYGVPPAKASEEWMCSRCSANALEEDCCLCSLRGGALQRANDDRWVHVSCAVAILEARFVNIAERSPVDVSKIPLPRFKLKCVFCKKRRKRNAGCCVQCSHGRCPTAFHVSCAQAAGVMMQPDDWPFVVFITCFRHKIPNLERAKGALLSITAGQKVISKHKNGRFYQCEVVRLTTETFYEVNFDDGSFSDNLYPEDIVSQDCLQLGPPAEGEVVQVRWTDGQVYGAKFVASHPIQMYQVEFEDGSQLVVKRDDVYTLDEELPKRVKSRLSVASDMRFNEIFTEKEVKQEKKRQRVINSRYREDYIEPALYRAIME
For the molecule B2, the binding entry with JARID2-FLAG-Biotin(FB) [4] is recorded as “binds”.
